Data: article PMC7017634
Results are given in words; binding and its absence hold for the method and conditions named. Binding seen in cells or lysates may run through a third protein. Binding can be weak; no strength is given.

Protein sequences, listed by entry. Tags and fused reporters are not part of them. Lines headed by an entry give the natural chain unless they say otherwise; changes in a name come on top.
UniProt O43602: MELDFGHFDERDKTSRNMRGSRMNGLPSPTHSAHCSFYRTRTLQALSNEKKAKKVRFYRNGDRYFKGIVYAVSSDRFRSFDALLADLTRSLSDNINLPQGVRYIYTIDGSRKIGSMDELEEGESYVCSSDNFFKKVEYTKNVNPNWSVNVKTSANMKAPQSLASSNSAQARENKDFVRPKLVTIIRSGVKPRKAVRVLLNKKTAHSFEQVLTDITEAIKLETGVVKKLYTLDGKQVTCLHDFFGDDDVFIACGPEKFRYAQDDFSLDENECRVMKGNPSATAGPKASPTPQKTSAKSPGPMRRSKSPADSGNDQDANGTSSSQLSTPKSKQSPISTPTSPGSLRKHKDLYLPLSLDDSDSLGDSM
UniProt P52294: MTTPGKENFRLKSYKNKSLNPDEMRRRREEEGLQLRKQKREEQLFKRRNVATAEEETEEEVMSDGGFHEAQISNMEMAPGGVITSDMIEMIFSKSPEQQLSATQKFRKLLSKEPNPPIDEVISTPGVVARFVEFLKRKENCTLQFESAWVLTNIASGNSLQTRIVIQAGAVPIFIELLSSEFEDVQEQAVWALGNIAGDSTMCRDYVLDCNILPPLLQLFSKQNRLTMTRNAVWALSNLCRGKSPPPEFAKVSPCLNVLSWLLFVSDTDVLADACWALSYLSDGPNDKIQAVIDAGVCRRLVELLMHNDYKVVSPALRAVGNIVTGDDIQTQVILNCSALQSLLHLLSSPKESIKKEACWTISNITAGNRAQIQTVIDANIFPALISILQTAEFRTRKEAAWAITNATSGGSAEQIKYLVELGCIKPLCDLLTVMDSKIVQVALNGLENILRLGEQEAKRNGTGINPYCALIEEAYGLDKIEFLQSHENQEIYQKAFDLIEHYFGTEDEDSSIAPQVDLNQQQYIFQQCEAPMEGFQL
UniProt Q14974: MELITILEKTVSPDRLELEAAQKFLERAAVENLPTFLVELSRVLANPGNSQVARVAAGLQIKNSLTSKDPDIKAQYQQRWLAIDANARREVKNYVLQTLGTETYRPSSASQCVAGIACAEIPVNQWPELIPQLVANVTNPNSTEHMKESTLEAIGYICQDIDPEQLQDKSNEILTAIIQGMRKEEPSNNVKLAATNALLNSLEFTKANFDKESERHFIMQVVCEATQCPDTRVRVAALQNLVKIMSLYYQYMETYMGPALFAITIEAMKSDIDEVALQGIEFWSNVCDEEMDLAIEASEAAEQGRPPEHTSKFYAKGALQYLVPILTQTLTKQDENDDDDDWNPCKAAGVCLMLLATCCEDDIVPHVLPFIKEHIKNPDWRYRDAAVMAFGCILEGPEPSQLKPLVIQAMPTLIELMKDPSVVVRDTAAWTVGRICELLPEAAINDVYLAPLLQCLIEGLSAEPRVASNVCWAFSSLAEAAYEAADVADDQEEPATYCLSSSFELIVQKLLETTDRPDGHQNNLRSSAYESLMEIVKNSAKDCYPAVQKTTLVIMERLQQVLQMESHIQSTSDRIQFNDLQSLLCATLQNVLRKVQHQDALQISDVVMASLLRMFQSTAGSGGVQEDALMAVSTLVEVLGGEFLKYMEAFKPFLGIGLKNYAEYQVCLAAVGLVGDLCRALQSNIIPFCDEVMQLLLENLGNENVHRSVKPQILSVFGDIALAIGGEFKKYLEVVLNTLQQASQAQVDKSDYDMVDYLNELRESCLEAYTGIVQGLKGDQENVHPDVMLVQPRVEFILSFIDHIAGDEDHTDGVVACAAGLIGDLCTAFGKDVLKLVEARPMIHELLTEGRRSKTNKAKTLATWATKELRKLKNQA

Biological target: DCXNLS1-del (UniProt O43602)
Test: co-IP; lysates of stable cells expressing the DCX vector or DCX NLS mutants

binding	Substance
binds	importin-α, endogenous in the cells with DCX vectors (from UniProt P52294 1-538)
binds	importin-β, endogenous in the cells with DCX vectors (from UniProt Q14974 1-876)
